Measured values taken from patent publication US20250228851A1, “ALLOSTERIC INHIBITOR COMPOUNDS FOR OVERCOMING CANCER RESISTANCE” (priority 2021, published 2025).
Some results were stated once for a whole list of compounds, not compound by compound.

Test system: KÖ (Ph+T315I-p185-BCR-ABL ALL)
Assay: XTT cell viability, PD-LTC KÖ
Assay type: cell-based, human

SMILES: Cc1cn(-c2cc(NC(=O)c3ccc(C)c(Nc4nccc(-c5cccnc5)n4)c3)cc(C(F)(F)F)c2)cn1 [Nilotinib, reference compound]
- lack of response of KÖ relative to sensitive PH culture: exceeded 20 folds
